Results published in PMC4818781 (EMBO Reports, 2016).
Residue numbers refer to the chain shown, from its start. Results are given in words; binding and its absence hold for the method and conditions named. For some assays here: Binding seen in cells or lysates may run through a third protein. Some binding calls cover weakened binding; strength is not graded here. For some assays here: Sequences can lack the tags named with a protein.

Sequences of proteins named here, by UniProt entry; tags and fusion partners are left off. Residues count along the entry.
UniProt O43482, residues 56-183: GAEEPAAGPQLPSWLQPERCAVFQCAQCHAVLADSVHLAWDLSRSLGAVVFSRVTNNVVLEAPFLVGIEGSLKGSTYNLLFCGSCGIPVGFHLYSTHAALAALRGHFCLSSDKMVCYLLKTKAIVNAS

T1: endogenous spMis18fl with a C‐terminal 8xMyc tag (Schizosaccharomyces pombe) (UniProt Q9P802)
T1 sequence: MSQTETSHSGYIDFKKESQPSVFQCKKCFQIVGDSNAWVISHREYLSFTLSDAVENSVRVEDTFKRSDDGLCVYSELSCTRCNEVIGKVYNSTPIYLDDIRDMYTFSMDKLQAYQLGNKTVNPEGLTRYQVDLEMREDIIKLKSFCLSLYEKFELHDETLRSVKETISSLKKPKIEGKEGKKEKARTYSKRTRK

T2: His‐GFP‐spMis18_(C‐term‐α), C‐terminal α‐helical domain of S. pombe Mis18 (Schizosaccharomyces pombe) (UniProt Q9P802)
T2 sequence: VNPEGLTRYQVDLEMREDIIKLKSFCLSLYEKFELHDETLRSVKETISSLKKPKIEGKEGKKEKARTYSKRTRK

B1: His‐GFP‐spMis18fl, recombinant full‐length S. pombe Mis18 (natural protein, Schizosaccharomyces pombe, UniProt Q9P802 1-194, looked up)
chain: T1 sequence
B2: spMis18flI31A‐GFP, ectopically expressed (protein, UniProt Q9P802 1-194)
chain: T1 sequence with I31A
B3: spMis18_(MeDiY)‐GFP, ectopically expressed (domain or fragment, UniProt Q9P802 1-120)
chain: MSQTETSHSGYIDFKKESQPSVFQCKKCFQIVGDSNAWVISHREYLSFTLSDAVENSVRVEDTFKRSDDGLCVYSELSCTRCNEVIGKVYNSTPIYLDDIRDMYTFSMDKLQAYQLGNKT
B4: His‐spMis18_(1–120), N‐terminal Yippee‐like globular domain of S. pombe Mis18 (domain or fragment, Schizosaccharomyces pombe, UniProt Q9P802 1-120, looked up)
chain: B3 chain

How the values were obtained:
[1] = molecular target: hsMis18β_(56–183), Yippee‐like globular domain of human Mis18β (human) (UniProt O43482); assay: SEC-MALS; room temperature; 100 μl of protein at 1 mg/ml; 50 mM HEPES pH 8, 150 mM NaCl, 5 mM DTT; elution volumes of SEC also told; both purified
[2] = molecular target: T1, endogenous spMis18fl with a C‐terminal 8xMyc tag (Schizosaccharomyces pombe); assay: co-IP; S. pombe cells grown 21 h without thiamine; immunoprecipitation with anti-myc A14, blot with anti-GFP and anti-myc
[3] = molecular target: T2, His‐GFP‐spMis18_(C‐term‐α), C‐terminal α‐helical domain of S. pombe Mis18 (Schizosaccharomyces pombe); assay: SEC; equimolar mixture of the two purified proteins on Superdex 200 increase 10/300; 20 mM Tris pH 8, 150 mM NaCl, 2 mM DTT; fractions on SDS-PAGE; both purified

Molecule | binding [2] | further results
hsMis18β_(56–183), Yippee‐like globular domain of human Mis18β (from UniProt O43482 56-183) (domain or fragment) |  | binding [1]: no binding (tested: 1 mg/ml loaded)
B1 | binds | 
B2 | binds | 
B3 | binds | 
B4 |  | binding [3]: no binding
